PubChem BioAssay AID652259, Drosophila RNAi Screening Center, 2013

Purpose: 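Genome-wide hunt for genes that control Wingless pathway activity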 (primary screen)
System: Drosophila clone 8 imaginal disc epithelial cells
Reagent: long dsRNA against Drosophila genes
Challenge: pathway stimulated by co-transfected Wingless expression plasmid
Measurement: 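Dual luciferase reads per well after Wingless plasmid stimulation: reporter firefly light and Renilla control light; activity is firefly divided by Renilla, a ratio not deposited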
Scale: firefly reporter light: higher = more Wg reporter light, before normalisation; Renilla control light: higher = more transfected or surviving cells
Hit rule: 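Strong candidates differ from their plate mean by at least two out of four per-plate statistical tests; weak candidates meet just one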
Meaning of the calls: active = candidate regulator (raises or lowers reporter); inactive = not a candidate
The screen tested about 22,000 reagents; shown is a random part of those that have a named target and a result. Over the whole deposit, 233 (1.1%) were called active. 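Light values are raw, unnormalised plate reads; the ratio scores behind the reporter calls were not deposited.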 Reagents against one gene are numbered here. A plus sign joins genes that one reagent is predicted to hit. Not given: the amount of reagent, the time to read-out, the dose of the treatment.

Knock-down of CG11122 came out at: firefly reporter light, replicate 1 = 4705; firefly reporter light, replicate 2 = 9620; Renilla control light, replicate 1 = 1594; Renilla control light, replicate 2 = 4027; inactive.
For Obp19b (Odorant-binding protein 19b) the deposit lists firefly reporter light, replicate 1 = 19138; Renilla control light, replicate 1 = 9573; inactive.
For Rbcn-3A (Rabconnectin-3A), the values are firefly reporter light, replicate 1 = 25412; Renilla control light, replicate 1 = 12465; inactive.
With knock-down of Ire1 (Inositol-requiring enzyme-1) the results were firefly reporter light, replicate 1 = 11926; Renilla control light, replicate 1 = 3267; inactive.
Against CG8072, the values are firefly reporter light, replicate 1 = 6438; Renilla control light, replicate 1 = 2192; inactive.
For Tim17a2, the values are firefly reporter light, replicate 1 = 17621; Renilla control light, replicate 1 = 5876; inactive.
Silencing of CG33285 gave: firefly reporter light, replicate 1 = 3067; Renilla control light, replicate 1 = 1344; inactive.
Knock-down of Or22b (Odorant receptor 22b) came out at: firefly reporter light, replicate 1 = 2264; firefly reporter light, replicate 2 = 7429; Renilla control light, replicate 1 = 941; Renilla control light, replicate 2 = 2673; inactive.
For CG16787, the values are firefly reporter light, replicate 1 = 3584; firefly reporter light, replicate 2 = 7096; Renilla control light, replicate 1 = 823; Renilla control light, replicate 2 = 2624; inactive.
Silencing of daed (daedalus) gave: firefly reporter light, replicate 1 = 10144; Renilla control light, replicate 1 = 3133; inactive.
With knock-down of ix (intersex), the screen gave firefly reporter light, replicate 1 = 5820; Renilla control light, replicate 1 = 1783; inactive.
After knock-down of TpnC41C (Troponin C at 41C) the results were firefly reporter light, replicate 1 = 2531; firefly reporter light, replicate 2 = 6896; Renilla control light, replicate 1 = 441; Renilla control light, replicate 2 = 2448; inactive.
Lamtor2 + CG30120 #1 gave firefly reporter light, replicate 1 = 15821; Renilla control light, replicate 1 = 11996; inactive.
After knock-down of Lamtor2 + CG30120 #2 the results were firefly reporter light, replicate 1 = 7837; Renilla control light, replicate 1 = 2852; inactive.
With knock-down of CG17362 the results were firefly reporter light, replicate 1 = 5131; Renilla control light, replicate 1 = 2474; inactive.
For CG12481, the entry reads firefly reporter light, replicate 1 = 9223; Renilla control light, replicate 1 = 7060; inactive.
D19A scored firefly reporter light, replicate 1 = 3353; Renilla control light, replicate 1 = 1171; inactive.
With knock-down of CG13131 the results were firefly reporter light, replicate 1 = 2827; firefly reporter light, replicate 2 = 8128; Renilla control light, replicate 1 = 976; Renilla control light, replicate 2 = 3776; inactive.
After knock-down of Orc6 (Origin recognition complex subunit 6) the results were firefly reporter light, replicate 1 = 2801; firefly reporter light, replicate 2 = 9104; Renilla control light, replicate 1 = 900; Renilla control light, replicate 2 = 3025; inactive.
Knock-down of UQCR-14 (Ubiquinol-cytochrome c reductase 14 kDa subunit) gave: firefly reporter light, replicate 1 = 22721; Renilla control light, replicate 1 = 9872; inactive.
Patsas gave firefly reporter light, replicate 1 = 12273; Renilla control light, replicate 1 = 3900; inactive.
Against CG11069, the entry reads firefly reporter light, replicate 1 = 2352; firefly reporter light, replicate 2 = 5096; Renilla control light, replicate 1 = 1027; Renilla control light, replicate 2 = 1192; inactive.
Depletion of CG42673 #1 gave: firefly reporter light, replicate 1 = 2164; Renilla control light, replicate 1 = 1194; inactive.
For CG42673 #2 the deposit lists firefly reporter light, replicate 1 = 3869; Renilla control light, replicate 1 = 409; inactive.
CG42673 #3 showed firefly reporter light, replicate 1 = 8298; Renilla control light, replicate 1 = 2299; inactive.
With knock-down of CG42673 #4 the results were firefly reporter light, replicate 1 = 4924; Renilla control light, replicate 1 = 2659; inactive.
Against CG42673 #5, the entry reads firefly reporter light, replicate 1 = 10291; Renilla control light, replicate 1 = 4880; inactive.
With knock-down of CG42673 #6, the screen gave firefly reporter light, replicate 1 = 8923; Renilla control light, replicate 1 = 4103; inactive.

Copied from the list.
Entry for Or22b (Odorant receptor 22b) in “Renilla control light, replicate 2”: 2673
CG8072, Renilla control light, replicate 1 → 2192
